The full ranking holds about 33,000 sequences; the median of “E-score (-0.5 to 0.5)” is about -8e-05, and the highest 2% start at about 0.23. This is one part of the list.

In the assay the target is T1, Nrg2 (UniProt P38082).
T1 sequence: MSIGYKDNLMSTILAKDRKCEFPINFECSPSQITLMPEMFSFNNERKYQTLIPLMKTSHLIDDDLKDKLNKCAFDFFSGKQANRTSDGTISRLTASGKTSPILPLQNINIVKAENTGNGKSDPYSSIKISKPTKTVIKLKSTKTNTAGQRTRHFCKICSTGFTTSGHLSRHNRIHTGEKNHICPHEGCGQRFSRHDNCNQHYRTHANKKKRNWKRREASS
The experiment in a line: PBM E-score (8-mer binding enrichment) (E-score (-0.5 to 0.5)); higher = stronger / more preferred TF binding. The note with it: protein concentration: 100 nM; construct: GST-full length. The essentials: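 Full-length yeast transcription factors or their DNA-binding domains, GST-tagged and expressed with PURExpress, were applied at about 100-200 nM to universal all-10-mer Agilent arrays. These arrays had been made double-stranded by primer extension on fresh or once-stripped slides. Detection used fluorescent anti-GST, normalisation used masliner, and E-scores for ungapped eight-base words pooled with reverse complements came from the Universal PBM Analysis Suite.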
As for AACCTGAA, the “PBM E-score” value was -0.178. In the case of TGCTGTAA, the “PBM E-score” value was -0.119. The same measure for CCAACTAG: 0.0525; for TTCAACAA: 0.0713; for GCCGAACA: -0.0146. The same measure for AAATTATT: 0.178; for CCCGAATA: 0.105. The same measure for AAGTAGAC: 0.00904; for CATAGTGG: 0.0653; for AGAAGCAG: -0.125. GACGAGGA: the “PBM E-score” value was determined as 0.0917.

In the case of ACAAGGTG, the “PBM E-score” value worked out at 0.11.

On to AGCCGTGG, for which the “PBM E-score” value was -0.213. Then CTCTGGTA, with -0.0435; and AGATCGTC, with -0.0895; and ACCAACTG, with 0.108. Consider TATCGCGA, for which the “PBM E-score” value came out at 0.252. Then AGGCCGAA, with 0.026. Then GACATTAC, with -0.0297; and ATGATGAA, with 0.31. Turning to CACATCCC, the “PBM E-score” value was determined as 0.083. Turning to GGCGATAA, the “PBM E-score” value worked out at 0.0868. With ATTTAGCC, the “PBM E-score” value came to 0.131. Then CCATTTAC, with 0.0881. Consider ACCACTAT, for which the “PBM E-score” value is 0.046.

AAAGAGGT: the “PBM E-score” value was 0.0409. Then ACCCAGCG, with -0.179.

In the case of ACTGAGGA, the “PBM E-score” value was -0.0659.

With AAGGGATT, the “PBM E-score” value stood at 0.0146. Then GACTCAAC, with 0.0715; and ATTTTGAA, with 0.102; and CTTGCATA, with 0.153. The same measure for AGCAGATA: -0.00568; for GATACAAC: 0.0948; for ATTTACGG: 0.186.

Consider CCACTAAC, for which the “PBM E-score” value was 0.00817. The same measure for TGCATGAA: 0.155. The same measure for CACCGTCG: -0.118. With CCGGCAAC, the “PBM E-score” value is -0.142.

Consider CAAGTAGA, for which the “PBM E-score” value is -0.0872.

Consider AGGGACGA, for which the “PBM E-score” value was 0.248.

For the sequence TCTTACCA, the “PBM E-score” value was -0.00367.

Consider TGCATTAA, for which the “PBM E-score” value was found to be 0.0765.

As for CTAGGAAA, the “PBM E-score” value is -0.0879.

As for CCTTATGC, the “PBM E-score” value is 0.147. For GAGCTATC, the “PBM E-score” value was -0.182. Regarding CCGTCCCG, the “PBM E-score” value was -0.203. Then ATGACTGG, with -0.231; and GCGGCGGA, with 0.181. Then GTCCAGAA, with -0.0377; and GAGATGGC, with 0.102; and CACTTTCG, with -0.0303. CACAGTTC: the “PBM E-score” value came to 0.0745.

For AGGTGGGG, the “PBM E-score” value is -0.0339. Then GTCCCTGA, with 0.356. Turning to CATAGCGA, the “PBM E-score” value was -0.0858. For CGTCACCC, the “PBM E-score” value is -0.106.

For the sequence AAAATGGC, the “PBM E-score” value was found to be 0.124. On to AAAGTCCA, for which the “PBM E-score” value was -0.00565. As to GAACGAAC, the “PBM E-score” value was found to be 0.0458.

ACTATCCT: the “PBM E-score” value is -0.0563. Then AGGGCTAG, with -0.142; and AATCCCTA, with 0.154. The same measure for AGCCTGGA: -0.0491. Take AGACAGAC: the “PBM E-score” value is 0.209. Then AGGGTCAG, with -0.102; and CTCAACTA, with 0.116; and ATATAGAA, with 0.175. Take GTAGACTA: the “PBM E-score” value was -0.3. Then CCTTGGGA, with -0.0807. The same measure for ACTTACCA: 0.00217. The same measure for AGTCGAGG: -0.0493; for TAATAGAA: 0.0357; for ACCCCGAC: -0.0792.

Consider CGGGCTAA, for which the “PBM E-score” value was -0.175. On to AGTTGTCA, for which the “PBM E-score” value turned out to be 0.133.

Take TAGACACA: the “PBM E-score” value was -0.216. Then TCTATCCA, with -0.0657. Then ATAAGGGG, with 0.132; and ACTTATCA, with 0.00725; and TAATGCCA, with 0.149. As to GCCTCAAC, the “PBM E-score” value is -0.0603. Consider CGATGCAG, for which the “PBM E-score” value stood at 0.0488. The same measure for ATACTTAC: 0.0563; for GAATCAAA: 0.114; for ACTTCCTG: 0.0859.

Source of the values: the supplement of paper PMC3334620.
